These results are taken from US20060222587A1, “Hybrid inorganic nanoparticles, methods of using and methods of making” (priority 2005, published 2006).

The series in a line: 19F spectra of neat nanoparticles versus 1000 mM NaF in aqueous solution. The note with it: equal volumes, 90° block pulse, center frequency approx. midway between resonant frequencies, 188.34 MHz.

With `[F-].[Na+]` [NaF, sodium fluoride], the Integrated peak intensities is reported as 7.55 relative units.
